# Structures can show the parent of a compound that is named as a salt. This is one part of the list. Many values rest on one well or one pass, so single values are uncertain.
# System: Trypanosoma brucei brucei bloodstream form L262P (kDNA-independent)
# Test: viability Z-score (nuclei count per well, median-polish normalised, relative to plate distribution); higher = more viable parasites (negative = growth inhibition)
# Conditions: 4 days; compound concentration: 10 µM (some Prestwick/PKE rows may be 1 µM / not distinguished)
row,Compound,viability Z-score
1,CNC1(C)C(=O)c2ccccc2C1=O,-1.73
2,O=C3N(C)C=2N=CN(CC(=O)N/C1=C/C=C(C=C1)[S](=O)(=O)NCCCC)C=2C(=O)N3C,-4.12
3,C1CCC(C(CC2CCCCN2)C2CCCCC2)CC1 (configuration not stated) [Perhexiline maleate],-1.31
4,O=C(NCC/C1=C/CCCC1)C=3[S]C=2C=CC=CC=2C=3[Cl],-3.33
5,O=C1N(C=C/C=C1/NC(=O)NC/C2=C/C=CC=C2)CC=3C=CC([Cl])=CC=3,-5.14
6,CCn1cc(C(=O)O)c(=O)c2cc(-c3ccc([N+](=O)[O-])o3)c(Cl)cc21,-1.96
7,CSc1sc(-c2ccon2)c(-c2ccccc2)c1C#N,-2.95
8,N=1\C(c2c(N/C1/N)ncc(n2)CNc1ccc(C(N[C@H](C(=O)O)CCC(=O)O)=O)cc1)=O [Folic acid],-2.24
9,C=CC[C@H]1C[C@@H](COC(c2ccccc2)(c2ccccc2)c2ccccc2)OC1=O,-6.28
10,C/N=c1/[nH]/c(=N\c2ccc(S(N)(=O)=O)cc2)onc1N,-5.32
11,CC(C)(C)NCC(O)c1cc(O)cc(O)c1.CC(C)(C)NCC(O)c1cc(O)cc(O)c1 (configuration not stated) [Terbutaline hemisulfate],-1.33
12,O=C(N[C@]1([H])CCCCC1)[C@@]2(CCCCC2)N(C=O)C(C)(C)[H],-2.11
13,O=[S](=O)(C1=CC(=C/C=C1/OC)C2=NN=NN2CC)N3CCCCC3,-4.89
14,O=C(O)C1=CC(=C/C=C1/C(=O)O)C(=O)C2=CC=CC=C2,-4.36
15,O=C(N[C@]([H])(COC/C1=C/C=CC=C1)C(=O)N[C@@]([H])(CC[S]C)C(=O)N)[C@@]2([H])CCC(=O)N2C(=O)OC/C3=C/C=CC=C3,-5.05
16,CC/C2=C/C=1C(=NNC(=NC=1C=C2)C3=CC=CC=C3)C=4[S]C=CC=4,-5.89
17,Cn1c(N/N=C/c2cn(Cc3ccccc3)c3ccccc23)nc2ccccc21,-1.04
18,O=C(NC=1/C=C(/[F])C(C)=CC=1)N/C2=C/C=CC=C2,-1.92
19,CCOC(=O)/N=c1/c[n+](N2CCOCC2)[n-]o1 [Molsidomine],-2.83
20,CC1CC2C3CC(F)C4=CC(=O)C=CC4(C)C3(F)C(O)CC2(C)C1(O)C(=O)COC(=O)C(C)(C)C (configuration not stated) [Flumethasone pivalate],-1.92
21,O=C(CCCCCN1C(=O)c2cccc3cccc(c23)C1=O)NO [Scriptaid],-5.88
22,O=C(N/C1=C/C=C(C=C1)OCCCC)C=2N=CC(C)=NC=2,-2.24
23,C[C@H](NCCCCCCN[C@H](C)[C@H]1COc2ccccc2O1)[C@@H]1COc2ccccc2O1,-2.29
24,O=C(N/C1=N/C=CC(C)=C1)CO/C2=C/C=C(/[Cl])C=C2,-3.05
25,CCN(CC)C(=S)SSC(=S)N(CC)CC [Disulfiram],-5.7
26,Cc1cc(C(C)(C)CC(C)(C)C)ccc1OCCOCC[N+](C)(C)Cc1ccccc1 [Methyl benzethonium chloride],-3.37
27,[Cl]C=3/C=C(/C[S]C=1OC(=NN=1)C2=CC(C)=CC=C2)C=CC=3[Cl],-5.77

# Exported as tab-separated lines: 2 of the compounds above.
row	Compound	viability Z-score
9	C=CC[C@H]1C[C@@H](COC(c2ccccc2)(c2ccccc2)c2ccccc2)OC1=O	-6.28
10	C/N=c1/[nH]/c(=N\c2ccc(S(N)(=O)=O)cc2)onc1N	-5.32

# — the supplement of paper PMC8846439
